The supplement of paper PMC12067093, “Discovery and optimisation of a covalent ligand for TRIM25 and its application to targeted protein ubiquitination” (Chemical Science, 2025)
Some of the results follow.

The chains behind the UniProt entries cited, without tags or fusion partners. Where a name states a change or a piece, a line headed by the entry shows the natural chain unless it says otherwise.
UniProt O00754: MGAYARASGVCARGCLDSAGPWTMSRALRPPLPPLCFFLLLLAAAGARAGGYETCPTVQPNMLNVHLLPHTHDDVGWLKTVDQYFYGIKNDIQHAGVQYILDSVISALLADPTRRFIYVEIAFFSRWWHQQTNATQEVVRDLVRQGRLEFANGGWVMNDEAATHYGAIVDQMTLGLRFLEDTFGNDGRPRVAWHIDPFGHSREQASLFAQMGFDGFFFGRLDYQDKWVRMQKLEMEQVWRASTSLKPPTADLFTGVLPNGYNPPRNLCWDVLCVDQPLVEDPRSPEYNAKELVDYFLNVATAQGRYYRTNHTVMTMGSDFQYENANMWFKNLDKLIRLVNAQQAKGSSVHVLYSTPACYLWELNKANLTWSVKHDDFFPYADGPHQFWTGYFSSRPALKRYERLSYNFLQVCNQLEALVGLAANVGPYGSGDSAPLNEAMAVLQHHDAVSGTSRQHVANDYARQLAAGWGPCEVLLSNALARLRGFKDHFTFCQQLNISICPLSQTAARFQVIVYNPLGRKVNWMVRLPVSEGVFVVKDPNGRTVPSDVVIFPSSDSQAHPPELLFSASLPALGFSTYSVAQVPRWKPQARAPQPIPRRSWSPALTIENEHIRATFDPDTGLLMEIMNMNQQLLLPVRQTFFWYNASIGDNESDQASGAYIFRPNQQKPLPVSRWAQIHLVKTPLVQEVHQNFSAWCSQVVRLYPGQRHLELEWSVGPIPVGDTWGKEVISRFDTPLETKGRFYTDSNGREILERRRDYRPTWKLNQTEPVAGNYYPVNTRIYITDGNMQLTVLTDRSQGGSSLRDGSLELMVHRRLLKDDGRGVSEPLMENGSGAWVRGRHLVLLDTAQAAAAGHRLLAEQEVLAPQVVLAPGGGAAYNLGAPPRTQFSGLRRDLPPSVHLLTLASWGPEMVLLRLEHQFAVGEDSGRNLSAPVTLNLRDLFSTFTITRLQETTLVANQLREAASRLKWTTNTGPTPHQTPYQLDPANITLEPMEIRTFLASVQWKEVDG
UniProt P28482, whole entry, looked up: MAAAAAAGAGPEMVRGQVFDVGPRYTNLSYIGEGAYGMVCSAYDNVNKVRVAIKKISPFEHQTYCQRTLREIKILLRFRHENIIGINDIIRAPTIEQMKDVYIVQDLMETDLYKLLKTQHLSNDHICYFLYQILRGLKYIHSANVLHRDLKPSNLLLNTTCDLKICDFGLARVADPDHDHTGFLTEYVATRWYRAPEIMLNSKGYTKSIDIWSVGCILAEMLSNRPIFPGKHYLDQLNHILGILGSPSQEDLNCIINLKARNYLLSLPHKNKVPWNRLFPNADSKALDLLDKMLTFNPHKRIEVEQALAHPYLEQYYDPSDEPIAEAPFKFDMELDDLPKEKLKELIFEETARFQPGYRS
UniProt Q99698: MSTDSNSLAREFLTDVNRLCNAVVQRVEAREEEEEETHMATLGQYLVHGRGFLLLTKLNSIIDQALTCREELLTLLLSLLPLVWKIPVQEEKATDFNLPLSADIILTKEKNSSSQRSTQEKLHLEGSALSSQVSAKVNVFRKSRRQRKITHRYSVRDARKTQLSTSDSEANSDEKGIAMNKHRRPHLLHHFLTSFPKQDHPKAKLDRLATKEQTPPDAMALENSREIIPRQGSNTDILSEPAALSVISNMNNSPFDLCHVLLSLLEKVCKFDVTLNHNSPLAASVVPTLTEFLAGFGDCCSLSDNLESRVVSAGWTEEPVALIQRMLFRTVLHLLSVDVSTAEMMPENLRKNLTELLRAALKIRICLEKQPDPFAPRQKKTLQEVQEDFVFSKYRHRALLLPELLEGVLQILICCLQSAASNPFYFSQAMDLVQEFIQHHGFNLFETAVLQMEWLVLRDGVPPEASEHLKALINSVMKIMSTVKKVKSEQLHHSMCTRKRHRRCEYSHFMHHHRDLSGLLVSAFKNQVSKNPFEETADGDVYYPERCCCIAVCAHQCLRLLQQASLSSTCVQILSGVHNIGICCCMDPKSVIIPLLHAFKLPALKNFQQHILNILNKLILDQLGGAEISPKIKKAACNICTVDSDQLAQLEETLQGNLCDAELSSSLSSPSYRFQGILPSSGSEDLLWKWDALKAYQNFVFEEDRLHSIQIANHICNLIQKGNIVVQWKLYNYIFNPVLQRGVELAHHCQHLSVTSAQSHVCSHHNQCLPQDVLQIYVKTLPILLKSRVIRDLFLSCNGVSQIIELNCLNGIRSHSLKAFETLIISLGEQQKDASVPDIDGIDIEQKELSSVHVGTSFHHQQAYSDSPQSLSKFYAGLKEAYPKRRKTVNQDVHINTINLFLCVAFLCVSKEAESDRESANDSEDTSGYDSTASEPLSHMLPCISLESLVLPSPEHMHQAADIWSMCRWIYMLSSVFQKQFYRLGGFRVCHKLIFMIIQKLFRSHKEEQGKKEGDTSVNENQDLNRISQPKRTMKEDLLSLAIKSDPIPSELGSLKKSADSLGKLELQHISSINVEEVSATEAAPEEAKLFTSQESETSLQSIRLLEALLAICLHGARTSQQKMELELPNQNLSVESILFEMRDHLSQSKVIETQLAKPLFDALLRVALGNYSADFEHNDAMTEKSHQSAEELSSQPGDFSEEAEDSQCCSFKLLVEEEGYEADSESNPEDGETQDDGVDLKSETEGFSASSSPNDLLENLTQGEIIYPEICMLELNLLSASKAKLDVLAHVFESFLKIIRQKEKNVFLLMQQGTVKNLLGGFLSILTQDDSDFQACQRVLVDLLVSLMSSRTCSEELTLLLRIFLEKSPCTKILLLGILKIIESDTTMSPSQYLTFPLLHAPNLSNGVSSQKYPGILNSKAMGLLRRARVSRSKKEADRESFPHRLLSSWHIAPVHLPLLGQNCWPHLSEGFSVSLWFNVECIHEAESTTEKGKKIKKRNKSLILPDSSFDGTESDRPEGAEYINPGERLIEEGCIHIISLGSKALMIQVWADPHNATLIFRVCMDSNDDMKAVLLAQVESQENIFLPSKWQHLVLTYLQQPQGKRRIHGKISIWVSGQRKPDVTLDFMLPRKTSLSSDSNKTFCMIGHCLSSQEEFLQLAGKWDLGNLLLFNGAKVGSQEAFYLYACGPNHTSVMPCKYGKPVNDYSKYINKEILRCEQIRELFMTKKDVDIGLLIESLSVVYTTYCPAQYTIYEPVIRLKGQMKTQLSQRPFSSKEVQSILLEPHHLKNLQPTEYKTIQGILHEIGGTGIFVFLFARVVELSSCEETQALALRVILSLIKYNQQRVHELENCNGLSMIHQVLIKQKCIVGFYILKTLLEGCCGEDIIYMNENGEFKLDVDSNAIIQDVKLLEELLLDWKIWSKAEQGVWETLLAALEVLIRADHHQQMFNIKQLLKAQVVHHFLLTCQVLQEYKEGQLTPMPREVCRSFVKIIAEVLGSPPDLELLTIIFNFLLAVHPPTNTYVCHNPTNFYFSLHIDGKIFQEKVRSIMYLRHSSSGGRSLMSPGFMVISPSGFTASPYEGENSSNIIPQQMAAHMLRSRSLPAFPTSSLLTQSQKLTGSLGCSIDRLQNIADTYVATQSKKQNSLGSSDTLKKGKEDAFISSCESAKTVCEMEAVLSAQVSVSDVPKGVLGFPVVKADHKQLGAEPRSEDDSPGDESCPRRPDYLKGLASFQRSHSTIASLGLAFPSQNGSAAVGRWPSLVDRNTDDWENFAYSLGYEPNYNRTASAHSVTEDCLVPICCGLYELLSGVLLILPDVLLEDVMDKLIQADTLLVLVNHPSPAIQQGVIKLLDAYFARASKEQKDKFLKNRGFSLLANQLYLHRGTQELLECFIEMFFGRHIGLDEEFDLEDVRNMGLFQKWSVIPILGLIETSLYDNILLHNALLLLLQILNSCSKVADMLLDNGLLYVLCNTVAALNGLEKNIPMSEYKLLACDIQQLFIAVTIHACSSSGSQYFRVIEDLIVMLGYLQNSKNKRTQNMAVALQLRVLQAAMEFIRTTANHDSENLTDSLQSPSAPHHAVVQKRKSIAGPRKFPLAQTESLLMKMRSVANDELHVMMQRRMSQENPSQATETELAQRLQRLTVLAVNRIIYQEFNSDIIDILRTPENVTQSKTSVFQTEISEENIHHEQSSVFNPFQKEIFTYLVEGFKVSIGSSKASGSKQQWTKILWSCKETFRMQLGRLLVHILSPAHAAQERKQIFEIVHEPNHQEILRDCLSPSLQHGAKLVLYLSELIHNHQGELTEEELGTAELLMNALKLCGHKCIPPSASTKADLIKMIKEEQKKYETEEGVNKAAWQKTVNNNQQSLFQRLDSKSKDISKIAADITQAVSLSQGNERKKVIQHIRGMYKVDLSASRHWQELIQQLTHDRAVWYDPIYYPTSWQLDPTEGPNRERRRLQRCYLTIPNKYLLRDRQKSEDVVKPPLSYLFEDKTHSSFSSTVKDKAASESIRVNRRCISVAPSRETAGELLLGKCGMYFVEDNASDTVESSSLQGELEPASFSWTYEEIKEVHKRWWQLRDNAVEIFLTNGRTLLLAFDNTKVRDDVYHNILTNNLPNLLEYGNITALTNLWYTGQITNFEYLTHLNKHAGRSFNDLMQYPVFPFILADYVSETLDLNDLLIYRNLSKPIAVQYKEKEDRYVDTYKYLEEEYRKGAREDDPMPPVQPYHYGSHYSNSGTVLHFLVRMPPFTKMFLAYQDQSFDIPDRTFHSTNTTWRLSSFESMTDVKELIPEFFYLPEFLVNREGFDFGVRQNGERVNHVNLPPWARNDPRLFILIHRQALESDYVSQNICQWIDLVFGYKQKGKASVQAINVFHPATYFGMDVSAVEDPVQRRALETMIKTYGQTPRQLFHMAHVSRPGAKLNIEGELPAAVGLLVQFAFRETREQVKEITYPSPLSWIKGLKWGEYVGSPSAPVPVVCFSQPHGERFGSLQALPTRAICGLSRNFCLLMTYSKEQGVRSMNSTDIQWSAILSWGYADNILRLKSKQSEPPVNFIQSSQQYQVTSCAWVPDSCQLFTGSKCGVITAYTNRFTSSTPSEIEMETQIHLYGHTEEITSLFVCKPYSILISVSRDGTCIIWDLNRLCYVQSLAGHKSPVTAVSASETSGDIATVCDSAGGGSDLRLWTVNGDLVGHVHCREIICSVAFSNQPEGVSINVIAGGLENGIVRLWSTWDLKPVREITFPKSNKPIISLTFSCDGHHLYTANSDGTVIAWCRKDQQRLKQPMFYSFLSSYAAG
UniProt P43243: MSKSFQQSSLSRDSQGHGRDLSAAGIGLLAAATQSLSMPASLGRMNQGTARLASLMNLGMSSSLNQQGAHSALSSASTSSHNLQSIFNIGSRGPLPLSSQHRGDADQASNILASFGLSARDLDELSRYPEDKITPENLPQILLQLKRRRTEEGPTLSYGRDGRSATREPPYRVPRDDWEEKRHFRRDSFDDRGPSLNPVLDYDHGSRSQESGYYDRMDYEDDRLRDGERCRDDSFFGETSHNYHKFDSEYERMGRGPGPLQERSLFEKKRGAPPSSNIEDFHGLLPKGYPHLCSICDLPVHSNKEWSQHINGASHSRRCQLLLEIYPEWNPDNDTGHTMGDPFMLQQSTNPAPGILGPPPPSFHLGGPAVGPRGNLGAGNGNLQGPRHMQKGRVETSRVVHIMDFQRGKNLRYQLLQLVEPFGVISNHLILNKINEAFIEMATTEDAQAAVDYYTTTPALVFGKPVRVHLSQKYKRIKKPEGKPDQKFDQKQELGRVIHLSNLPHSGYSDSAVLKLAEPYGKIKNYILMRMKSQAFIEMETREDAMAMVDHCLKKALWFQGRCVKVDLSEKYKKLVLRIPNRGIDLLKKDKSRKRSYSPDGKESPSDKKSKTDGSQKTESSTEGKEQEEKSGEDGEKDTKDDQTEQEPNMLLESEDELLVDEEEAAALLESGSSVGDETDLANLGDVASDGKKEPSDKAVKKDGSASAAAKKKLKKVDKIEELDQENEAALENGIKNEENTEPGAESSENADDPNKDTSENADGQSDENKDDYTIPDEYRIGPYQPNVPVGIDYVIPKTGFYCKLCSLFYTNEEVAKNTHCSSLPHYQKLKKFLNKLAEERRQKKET
UniProt Q7L5Y9: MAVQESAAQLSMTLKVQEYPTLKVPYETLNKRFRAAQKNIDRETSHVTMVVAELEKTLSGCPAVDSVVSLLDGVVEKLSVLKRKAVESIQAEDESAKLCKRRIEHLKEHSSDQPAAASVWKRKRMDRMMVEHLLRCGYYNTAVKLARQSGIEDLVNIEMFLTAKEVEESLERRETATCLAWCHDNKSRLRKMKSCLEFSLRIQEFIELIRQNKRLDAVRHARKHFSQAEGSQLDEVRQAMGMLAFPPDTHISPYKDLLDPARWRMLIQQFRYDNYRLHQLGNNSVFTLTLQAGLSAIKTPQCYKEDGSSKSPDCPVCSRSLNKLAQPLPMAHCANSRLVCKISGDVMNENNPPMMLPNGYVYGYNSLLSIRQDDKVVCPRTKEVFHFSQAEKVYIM
UniProt P55145: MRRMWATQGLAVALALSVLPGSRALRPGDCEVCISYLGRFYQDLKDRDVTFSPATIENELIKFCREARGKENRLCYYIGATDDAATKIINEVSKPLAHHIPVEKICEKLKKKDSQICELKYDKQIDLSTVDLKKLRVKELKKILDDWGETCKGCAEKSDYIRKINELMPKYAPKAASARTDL

Each target was assayed with Cc1cc(ccc1-c1ccccc1)C(=O)N1CCCN(CC1)C(=O)CCl [compound 10] (assay: probe-labelled cysteine peptide fold change vs DMSO (competition) (log2 fold change); higher = less target engagement (more negative = stronger competition)). Details: 50 µM; THP-1; incubation time: 4 h.
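Also: competitive profiling in live THP-1 cells: cysteine peptides tagged with an iodoacetamide desthiobiotin (IA-DTB) probe, intensity after compound treatment relative to DMSO-treated cells.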

| Target | probe-labelled cysteine peptide fold change |
| --- | --- |
| LYAR_Q9NX58_25_HVSVCR (UniProt Q9NX58) | -0.0267 |
| MAPK13_O15264_162_DLKPGNLAVNEDCELK (UniProt O15264) | -0.21 |
| MAN2B1_O00754_472_QLAAGWGPCEVLLSNALAR (UniProt O00754) | 0.421 |
| MCCC2_Q9HCC0_267_AATGEEVSAEDLGGADLHCR (UniProt Q9HCC0) | -1.1 |
| MAK16_Q9BXY0_39_NEYSLTGLCNR (UniProt Q9BXY0) | -0.348 |
| MAPK9_P45984_222_GCVIFQGTDHIDQWNK (UniProt P45984) | 0.0724 |
| MAPK1_P28482_127_TQHLSNDHICYFLYQILR (UniProt P28482) | 0.39 |
| MAN1A1_P33908_579_WAWEAVEALENHCR (UniProt P33908) | -0.0306 |
| LYPLA1_O75608_144_LAGVTALSCWLPLR (UniProt O75608) | 0.0595 |
| LYST_Q99698_2223_SEDDSPGDESCPR (UniProt Q99698) | -1.41 |
| LYPLA1_O75608_53_YICPHAPVRPVTLNMNVAMPSWFDIIGLSPDSQEDESGIK (UniProt O75608) | -0.102 |
| MARS_P56192_333_ALEEGLTPQEICDK (UniProt P56192) | 0.101 |
| MATR3_P43243_296_GYPHLCSICDLPVHSNK (UniProt P43243) | 0.014 |
| MAPK1_P28482_40_YTNLSYIGEGAYGMVCSAYDNVNK (UniProt P28482) | 0.0342 |
| MAPK14_Q16539_39_YQNLSPVGSGAYGSVCAAFDTK (UniProt Q16539) | 0.234 |
| MATR3_P43243_552_EDAMAMVDHCLK (UniProt P43243) | 0.337 |
| MAEA_Q7L5Y9_314+317_SPDCPVCSR (UniProt Q7L5Y9) | -0.514 |
| MAPRE2_Q15555_279_EIELLCQEHGQENDDLVQR (UniProt Q15555) | -0.171 |

| Target | probe-labelled cysteine peptide fold change |
| --- | --- |
| MAEA_Q7L5Y9_136_CGYYNTAVK (UniProt Q7L5Y9) | -0.0564 |
| MANBA_O00462_176_GECHVNFVR (UniProt O00462) | 0.0132 |
| MACF1_Q9UPN3_7133_QVAQCK (UniProt Q9UPN3) | -0.258 |
| MAN2C1_Q9NTJ4_29_FVSPLYFTDCNLR (UniProt Q9NTJ4) | 0.133 |
| LYST_Q99698_3677_SPVTAVSASETSGDIATVCDSAGGGSDLR (UniProt Q99698) | 0.232 |
| LYST_Q99698_2127_LTGSLGCSIDR (UniProt Q99698) | -0.142 |
| MAN2B1_O00754_273_NLCWDVLCVDQPLVEDPR (UniProt O00754) | -0.184 |
| LYST_Q99698_3586_CGVITAYTNR (UniProt Q99698) | 0.0755 |
| MANF_P55145_151_ILDDWGETCK (UniProt P55145) | -0.103 |
| MAP3K20_Q9NYL2_231_LTIPSSCPR (UniProt Q9NYL2) | -0.0263 |
| MAPKBP1_O60336_1443_LYHSVAGCK (UniProt O60336) | 0.0505 |
| MACF1_Q9UPN3_5188_LDIEASEAECR (UniProt Q9UPN3) | 0.184 |
| MAT2B_Q9NZL9_263_YEMACAIADAFNLPSSHLRPITDSPVLGAQRPR (UniProt Q9NZL9) | -0.121 |
| LYST_Q99698_2965_CYLTIPNK (UniProt Q99698) | -0.117 |
| LYST_Q99698_3701_LWTVNGDLVGHVHCR (UniProt Q99698) | 0.224 |
| MAPK1_P28482_254_HYLDQLNHILGILGSPSQEDLNCIINLK (UniProt P28482) | 0.511 |
| MBD4_O95243_268_ESVCNK (UniProt O95243) | -0.586 |
| MBOAT7_Q96N66_304_NIDCYSTDFCVR (UniProt Q96N66) | 0.0315 |
